Test results: paper PMC11361748
Results are given in words; binding and its absence hold for the method and conditions named. In cells and extracts the contact can be indirect. Some results given as binding are weak or reduced against the parent protein; the word gives no strength.

Amino acid sequences for entries named in this document (tags omitted).
UniProt Q04695: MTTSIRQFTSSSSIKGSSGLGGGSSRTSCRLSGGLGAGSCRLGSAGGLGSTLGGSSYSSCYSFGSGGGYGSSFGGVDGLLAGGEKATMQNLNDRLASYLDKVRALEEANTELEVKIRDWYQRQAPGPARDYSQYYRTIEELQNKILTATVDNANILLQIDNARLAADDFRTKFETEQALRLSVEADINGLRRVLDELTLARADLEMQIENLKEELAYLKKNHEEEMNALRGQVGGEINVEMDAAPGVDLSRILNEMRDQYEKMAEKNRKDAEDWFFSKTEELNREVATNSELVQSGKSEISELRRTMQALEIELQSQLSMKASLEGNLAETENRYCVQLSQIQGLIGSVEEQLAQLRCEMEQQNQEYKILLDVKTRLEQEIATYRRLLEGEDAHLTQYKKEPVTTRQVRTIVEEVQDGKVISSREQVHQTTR

Biological target: keratin 17 (human (endogenous in A431)) (UniProt Q04695)
Test: proximity ligation; Duolink PLA on fixed, permeabilised parental A431 keratinocytes treated with acetone vehicle or TPA for 30 min; PLA dots per cell; KRT17 null cells compared

- binding: binds
Substance: protein kinase C alpha (from UniProt P17252 1-672) (enzyme)
